# Reference: patent US9957226B2, “Antimicrobial compounds” (AKTHELIA PHARMACEUTICALS, priority 2013, dated 2018)
# At least one compound was matched to its structure with a doubt left.
# Test system: autophagy-related genes Beclin-1 and AtgS
# Experiment: RT-PCR of autophagy marker genes in HEK-293 cells
# Type: cell-based
# Conditions: 24 hrs, PBA 2 mM, compound 5 10 μM, Rapamycin 100 nM, FIG. 9 upper panel
# Procedure: RT-PCR experiments for expression of marker genes for autophagy in HEK-293 cells were measured by real-time PCR. Data were normalized by the expression of the 18s rRNA housekeeping gene. For the immunofluorescence spectroscopy experiments HEK-293 cells were fixed after treatment with the inducers or control. The cells were then stained with DAPI to visualize the nuclei (blue), and immunolabeled with the anti-LC3, followed by the addition of Alexa-fluor 488 (green). Scale bar=10 μm.
structure (smiles),measurement,value
CO[C@H]1C[C@@H]2CC[C@@H](C)[C@@](O)(O2)C(=O)C(=O)N2CCCC[C@H]2C(=O)O[C@H]([C@H](C)C[C@@H]2CC[C@@H](O)[C@H](OC)C2)CC(=O)[C@H](C)/C=C(\C)[C@@H](O)[C@@H](OC)C(=O)[C@H](C)C[C@H](C)/C=C/C=C/C=C/1C [Rapamycin],Expression of autophagy-related genes Beclin-1 and AtgS,increased expression
